# Laboratory results published in paper PMC12718141.
# Chains of the proteins cited; added tags and fusions are not shown.
# UniProt P21333: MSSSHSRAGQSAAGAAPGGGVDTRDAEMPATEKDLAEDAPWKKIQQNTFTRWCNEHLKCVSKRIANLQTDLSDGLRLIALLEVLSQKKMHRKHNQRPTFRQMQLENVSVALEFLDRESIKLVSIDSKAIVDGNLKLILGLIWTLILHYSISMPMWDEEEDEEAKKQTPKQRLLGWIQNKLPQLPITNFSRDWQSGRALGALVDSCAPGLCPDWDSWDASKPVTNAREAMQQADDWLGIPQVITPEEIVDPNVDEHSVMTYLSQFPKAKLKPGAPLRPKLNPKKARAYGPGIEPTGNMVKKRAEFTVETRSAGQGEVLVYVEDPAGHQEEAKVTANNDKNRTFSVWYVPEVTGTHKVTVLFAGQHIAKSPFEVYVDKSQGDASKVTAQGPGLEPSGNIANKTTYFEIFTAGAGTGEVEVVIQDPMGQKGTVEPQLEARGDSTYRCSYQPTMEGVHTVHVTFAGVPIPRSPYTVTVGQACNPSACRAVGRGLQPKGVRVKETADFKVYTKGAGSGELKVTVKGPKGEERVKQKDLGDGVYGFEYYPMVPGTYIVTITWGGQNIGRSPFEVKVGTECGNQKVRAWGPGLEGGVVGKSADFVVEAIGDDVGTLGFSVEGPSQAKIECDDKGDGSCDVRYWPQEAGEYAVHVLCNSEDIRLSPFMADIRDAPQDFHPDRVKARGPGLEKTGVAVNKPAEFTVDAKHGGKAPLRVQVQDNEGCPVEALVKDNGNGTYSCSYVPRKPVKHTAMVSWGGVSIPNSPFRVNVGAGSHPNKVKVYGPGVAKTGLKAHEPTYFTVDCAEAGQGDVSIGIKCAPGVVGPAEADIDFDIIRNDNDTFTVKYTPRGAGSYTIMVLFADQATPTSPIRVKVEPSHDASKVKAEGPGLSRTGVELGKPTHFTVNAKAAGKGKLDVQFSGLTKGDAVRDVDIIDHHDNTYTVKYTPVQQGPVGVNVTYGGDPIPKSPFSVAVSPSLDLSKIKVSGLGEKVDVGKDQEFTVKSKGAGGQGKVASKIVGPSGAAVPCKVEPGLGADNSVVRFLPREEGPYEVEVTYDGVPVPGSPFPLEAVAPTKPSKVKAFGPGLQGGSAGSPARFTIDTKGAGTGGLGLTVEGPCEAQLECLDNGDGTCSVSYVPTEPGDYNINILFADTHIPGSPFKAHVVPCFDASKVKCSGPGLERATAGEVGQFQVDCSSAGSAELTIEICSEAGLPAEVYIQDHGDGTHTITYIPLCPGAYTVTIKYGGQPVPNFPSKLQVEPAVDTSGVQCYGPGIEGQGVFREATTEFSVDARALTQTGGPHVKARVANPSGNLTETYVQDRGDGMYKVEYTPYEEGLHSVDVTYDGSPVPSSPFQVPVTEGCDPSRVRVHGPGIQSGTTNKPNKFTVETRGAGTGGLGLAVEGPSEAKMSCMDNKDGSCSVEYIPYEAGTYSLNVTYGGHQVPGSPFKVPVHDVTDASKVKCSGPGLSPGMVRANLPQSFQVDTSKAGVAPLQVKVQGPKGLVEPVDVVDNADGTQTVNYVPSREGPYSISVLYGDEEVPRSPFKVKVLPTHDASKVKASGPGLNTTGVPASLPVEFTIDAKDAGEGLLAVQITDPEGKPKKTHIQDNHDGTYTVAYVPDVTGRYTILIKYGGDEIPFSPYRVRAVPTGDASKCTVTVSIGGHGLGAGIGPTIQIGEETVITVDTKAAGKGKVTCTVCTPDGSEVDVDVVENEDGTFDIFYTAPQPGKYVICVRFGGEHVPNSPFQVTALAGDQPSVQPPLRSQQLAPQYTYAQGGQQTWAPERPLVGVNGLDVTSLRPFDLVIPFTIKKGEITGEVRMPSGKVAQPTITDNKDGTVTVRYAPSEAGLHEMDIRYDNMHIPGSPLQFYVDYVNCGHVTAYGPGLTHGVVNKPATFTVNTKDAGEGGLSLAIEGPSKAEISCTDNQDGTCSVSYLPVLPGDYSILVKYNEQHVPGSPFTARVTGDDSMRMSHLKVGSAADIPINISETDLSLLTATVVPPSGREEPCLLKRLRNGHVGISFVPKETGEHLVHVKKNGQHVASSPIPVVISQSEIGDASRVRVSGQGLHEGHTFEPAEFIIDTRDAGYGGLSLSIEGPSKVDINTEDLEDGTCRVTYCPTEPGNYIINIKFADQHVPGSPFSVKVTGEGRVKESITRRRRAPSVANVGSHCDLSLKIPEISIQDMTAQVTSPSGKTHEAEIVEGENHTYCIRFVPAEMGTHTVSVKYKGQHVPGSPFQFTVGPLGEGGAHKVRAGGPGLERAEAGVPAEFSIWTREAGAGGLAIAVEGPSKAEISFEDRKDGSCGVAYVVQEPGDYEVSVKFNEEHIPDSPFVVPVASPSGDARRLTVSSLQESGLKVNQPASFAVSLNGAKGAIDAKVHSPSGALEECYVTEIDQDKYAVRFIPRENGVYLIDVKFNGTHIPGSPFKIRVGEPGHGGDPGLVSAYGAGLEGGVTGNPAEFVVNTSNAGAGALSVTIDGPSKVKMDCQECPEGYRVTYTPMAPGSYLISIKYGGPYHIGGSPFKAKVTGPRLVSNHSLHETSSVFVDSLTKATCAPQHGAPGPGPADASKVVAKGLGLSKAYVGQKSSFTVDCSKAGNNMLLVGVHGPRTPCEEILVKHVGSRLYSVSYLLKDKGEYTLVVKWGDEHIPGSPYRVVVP
# UniProt O00571: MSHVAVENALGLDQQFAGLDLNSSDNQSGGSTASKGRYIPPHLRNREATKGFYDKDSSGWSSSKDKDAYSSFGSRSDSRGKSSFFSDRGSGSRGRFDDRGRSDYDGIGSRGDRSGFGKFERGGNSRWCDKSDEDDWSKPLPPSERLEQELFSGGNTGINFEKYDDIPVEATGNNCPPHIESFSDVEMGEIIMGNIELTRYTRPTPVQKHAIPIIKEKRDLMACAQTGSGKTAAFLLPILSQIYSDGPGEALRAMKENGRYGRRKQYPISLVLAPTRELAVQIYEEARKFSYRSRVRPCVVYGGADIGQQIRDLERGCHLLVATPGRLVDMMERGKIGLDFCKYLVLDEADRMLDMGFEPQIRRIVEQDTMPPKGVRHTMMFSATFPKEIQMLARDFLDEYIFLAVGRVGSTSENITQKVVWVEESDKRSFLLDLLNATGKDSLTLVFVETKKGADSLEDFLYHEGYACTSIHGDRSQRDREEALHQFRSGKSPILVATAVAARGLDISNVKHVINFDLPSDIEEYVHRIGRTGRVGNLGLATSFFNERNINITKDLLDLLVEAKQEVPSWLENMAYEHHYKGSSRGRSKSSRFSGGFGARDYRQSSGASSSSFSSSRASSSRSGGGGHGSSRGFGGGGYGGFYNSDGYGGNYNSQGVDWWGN
# UniProt Q9Y490: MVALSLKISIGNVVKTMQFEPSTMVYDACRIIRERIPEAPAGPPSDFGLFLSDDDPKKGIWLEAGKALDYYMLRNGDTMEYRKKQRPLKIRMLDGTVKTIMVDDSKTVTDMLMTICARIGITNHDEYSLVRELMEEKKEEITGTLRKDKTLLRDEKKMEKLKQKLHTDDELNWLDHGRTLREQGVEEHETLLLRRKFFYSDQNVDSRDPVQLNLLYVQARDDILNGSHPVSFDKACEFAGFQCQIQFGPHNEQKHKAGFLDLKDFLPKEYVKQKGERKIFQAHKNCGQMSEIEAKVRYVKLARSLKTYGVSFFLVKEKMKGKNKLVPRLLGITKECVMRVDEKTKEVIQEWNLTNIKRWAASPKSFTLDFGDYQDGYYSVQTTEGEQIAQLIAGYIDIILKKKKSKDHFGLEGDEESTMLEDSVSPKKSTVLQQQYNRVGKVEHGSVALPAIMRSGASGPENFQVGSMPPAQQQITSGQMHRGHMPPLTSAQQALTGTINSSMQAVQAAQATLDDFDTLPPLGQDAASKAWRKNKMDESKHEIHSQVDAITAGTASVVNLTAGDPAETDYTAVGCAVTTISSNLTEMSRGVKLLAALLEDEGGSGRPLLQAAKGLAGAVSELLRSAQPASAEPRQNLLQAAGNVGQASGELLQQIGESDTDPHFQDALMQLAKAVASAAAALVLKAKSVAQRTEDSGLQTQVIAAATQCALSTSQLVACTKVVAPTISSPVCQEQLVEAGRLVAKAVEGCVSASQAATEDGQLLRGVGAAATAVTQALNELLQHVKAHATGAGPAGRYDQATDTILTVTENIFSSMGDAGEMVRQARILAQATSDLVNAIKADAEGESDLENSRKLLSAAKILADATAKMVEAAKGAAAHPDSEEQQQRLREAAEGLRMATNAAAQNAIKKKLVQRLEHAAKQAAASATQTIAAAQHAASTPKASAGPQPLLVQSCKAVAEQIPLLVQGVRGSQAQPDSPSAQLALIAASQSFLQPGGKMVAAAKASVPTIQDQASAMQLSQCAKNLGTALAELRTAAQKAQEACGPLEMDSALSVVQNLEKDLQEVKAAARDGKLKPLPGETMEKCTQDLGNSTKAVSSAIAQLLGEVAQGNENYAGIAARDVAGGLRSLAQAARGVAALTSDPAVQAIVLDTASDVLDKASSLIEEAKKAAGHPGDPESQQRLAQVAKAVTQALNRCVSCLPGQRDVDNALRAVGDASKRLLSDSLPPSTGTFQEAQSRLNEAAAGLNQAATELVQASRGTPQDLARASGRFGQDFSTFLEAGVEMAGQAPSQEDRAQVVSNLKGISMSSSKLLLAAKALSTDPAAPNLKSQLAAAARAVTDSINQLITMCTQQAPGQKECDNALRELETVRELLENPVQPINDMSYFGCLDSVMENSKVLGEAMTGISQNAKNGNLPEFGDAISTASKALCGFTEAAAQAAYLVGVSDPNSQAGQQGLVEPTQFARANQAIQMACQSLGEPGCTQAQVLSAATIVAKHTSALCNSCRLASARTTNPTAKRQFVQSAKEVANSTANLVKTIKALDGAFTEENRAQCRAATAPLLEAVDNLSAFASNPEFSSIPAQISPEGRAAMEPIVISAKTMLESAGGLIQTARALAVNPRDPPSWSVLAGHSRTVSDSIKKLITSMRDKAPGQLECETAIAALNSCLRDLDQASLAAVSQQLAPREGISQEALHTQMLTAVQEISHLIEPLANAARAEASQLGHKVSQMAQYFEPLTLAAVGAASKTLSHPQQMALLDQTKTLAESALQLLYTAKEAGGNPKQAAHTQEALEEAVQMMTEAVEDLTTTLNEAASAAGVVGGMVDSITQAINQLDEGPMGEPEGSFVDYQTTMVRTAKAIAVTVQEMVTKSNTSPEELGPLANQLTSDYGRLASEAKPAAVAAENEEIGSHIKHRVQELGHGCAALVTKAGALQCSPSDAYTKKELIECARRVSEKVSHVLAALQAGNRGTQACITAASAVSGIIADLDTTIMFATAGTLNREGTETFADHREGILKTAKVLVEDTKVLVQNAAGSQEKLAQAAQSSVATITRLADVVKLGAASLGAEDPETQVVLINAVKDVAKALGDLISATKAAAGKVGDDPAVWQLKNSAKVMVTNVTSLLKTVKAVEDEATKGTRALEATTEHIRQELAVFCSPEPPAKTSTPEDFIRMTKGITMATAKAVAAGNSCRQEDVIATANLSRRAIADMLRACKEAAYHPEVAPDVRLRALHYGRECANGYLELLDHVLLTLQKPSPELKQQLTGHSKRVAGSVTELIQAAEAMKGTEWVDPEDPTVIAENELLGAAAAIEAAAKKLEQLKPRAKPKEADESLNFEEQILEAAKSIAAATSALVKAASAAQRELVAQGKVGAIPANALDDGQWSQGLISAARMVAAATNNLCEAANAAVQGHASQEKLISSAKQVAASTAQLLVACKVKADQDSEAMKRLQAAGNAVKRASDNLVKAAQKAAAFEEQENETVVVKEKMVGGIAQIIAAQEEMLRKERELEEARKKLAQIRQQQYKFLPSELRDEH
# No constants are given. Whether binding was seen depends on the method and setting. In cells and extracts the contact can be indirect. These calls come from enrichment with a bait or labelling near it, and not all partners need be listed. Sequences can lack the tags named with a protein.
# What was measured:
# [1] = target: T1, FKBP4 F130Y-BioID2-HA (human) (UniProt Q02790); experiment: proximity labelling; BioID and BioID2: FKBP4 (WT or F130Y) fused to BirA(R118G)-HA or BioID2-HA in HEK293T cells, biotin in the medium; RIPA lysate (5000 ug protein), streptavidin beads, SDS-PAGE, LC-MS/MS with Mascot scores compared with vector control or WT
# T1 sequence: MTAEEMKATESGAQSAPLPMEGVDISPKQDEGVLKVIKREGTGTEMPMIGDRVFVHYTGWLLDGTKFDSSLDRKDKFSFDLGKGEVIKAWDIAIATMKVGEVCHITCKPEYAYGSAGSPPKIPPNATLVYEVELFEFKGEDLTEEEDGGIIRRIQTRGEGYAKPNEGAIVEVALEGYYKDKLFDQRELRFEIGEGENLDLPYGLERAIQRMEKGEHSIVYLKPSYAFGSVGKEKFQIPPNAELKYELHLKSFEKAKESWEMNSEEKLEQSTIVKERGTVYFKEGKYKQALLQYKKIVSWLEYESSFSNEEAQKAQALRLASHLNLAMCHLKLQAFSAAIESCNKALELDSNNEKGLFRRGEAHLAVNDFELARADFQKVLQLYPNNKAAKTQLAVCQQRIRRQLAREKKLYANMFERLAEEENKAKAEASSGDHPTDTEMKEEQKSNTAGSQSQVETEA
# [2] = target: T2, FKBP4 F130Y-BirA (R118G)-HA (human) (UniProt Q02790); experiment: as above
# T2 sequence: T1 sequence
binding [1],binding [2],Substance
binds,binds,Filamin-A (FLNA) (from UniProt P21333 1-2647)
,binds,DDX3X (from UniProt O00571 1-662)
binds,binds,TALIN-1 (from UniProt Q9Y490 1-2541)
